Taken from: PubChem BioAssay AID1508588 (Peter MacCallum Cancer Centre, 2020)

- Assay: 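Genome-wide search for knock-downs that heighten vemurafenib action in melanoma cells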 (primary screen)
- System: human WM266.4 melanoma cells (BRAF V600 mutant)
- Knock-down reagent: siRNA pool against human genes, 40 nM
- Timing: 96 h from transfection to read-out
- Conditions: vemurafenib 300 nM (about IC25), added 48 h after transfection, for 48 h; comparison arm got DMSO vehicle only
- Measured: 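Ratios to non-targeting siRNA for cell gain, counted as DAPI nuclei after minus before drug and averaged over two replicates, and for absorbance-read medium lactate per cell; both binned into fold-change classes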
- Scale: cell gain with vemurafenib: higher = more cell gain than with non-targeting siRNA; lactate per cell with vemurafenib: higher = more lactate made per cell
- Active means: 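a knock-down counts as enhancing when its fold-change classes with vehicle and with vemurafenib, taken together, show a stronger drug effect on cell gain or lactate per cell; exact class pairs not stated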
- Meaning of the calls: active = enhances vemurafenib effect; inactive = no enhancement seen
This is an unselected part of about 18,000 reagents. In the full data, 790 (4.4%) are marked active. 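Calls rest on a combination of fold-change classes in drug and vehicle arms, not all shown here.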 A reagent listed more than once was tested more than once; the source does not tell the runs apart.

| gene | PubChem SID | cell gain with vemurafenib | lactate per cell with vemurafenib | Call |
| --- | --- | --- | --- | --- |
| UBE2J1 (GeneID 51465) | SID135621341 | 0.47 | 1.98 | inactive |
| RBM14 (GeneID 10432) | SID152148561 | 1.06 | 0.78 | inactive |
| RARA (GeneID 5914) | SID152153401 | 0.14 | 1.43 | inactive |
| KIF21B (GeneID 23046) | SID152147132 | -0.09 | 2.28 | inactive |
| MORN5 (GeneID 254956) | SID135625046 | 0.32 | 1.07 | inactive |
| SH3KBP1 (GeneID 30011) | SID134318850 | 0.94 | 0.74 | inactive |
| CLIC2 (GeneID 1193) | SID152150600 | 0.7 | 0.82 | inactive |
| CTF1 (GeneID 1489) | SID134323916 | 0.19 | 2.06 | inactive |
| AP4M1 (GeneID 9179) | SID152151271 | 0.82 | 0.36 | inactive |
| POMC (GeneID 5443) | SID152152874 | 1.03 | 0.9 | inactive |
| ZNF648 (GeneID 127665) | SID152150983 | 0.84 | 0.79 | inactive |
| CHCHD1 (GeneID 118487) | SID134326911 | 0.7 | 1.32 | inactive |
| ELAVL4 (GeneID 1996) | SID135623066 | 0.52 | 0.44 | active |
| REC114 (GeneID 283677) | SID152156362 | 0.95 | 0.48 | active |
| BTBD10 (GeneID 84280) | SID152154829 | 0.3 | 0.35 | active |
| GLG1 (GeneID 2734) | SID152154694 | 1.08 | 0.46 | inactive |
| TBC1D13 (GeneID 54662) | SID134320917 | 0.21 | 1.48 | inactive |
| SLC38A4 (GeneID 55089) | SID152155097 | 0.63 | 0.84 | inactive |
| RNF149 (GeneID 284996) | SID134312290 | 1.06 | 0.7 | inactive |
| RNF149 (GeneID 284996) | SID134312290 | 0.77 | 0.8 | inactive |
| KMT5B (GeneID 51111) | SID134317594 | 0.61 | 0.72 | inactive |
| SNAI1 (GeneID 6615) | SID134315269 | 0.67 | 1.56 | inactive |
| CCNT2 (GeneID 905) | SID56478582 | 0.45 | 1.43 | inactive |
| NTSR2 (GeneID 23620) | SID135621053 | 0.29 | 2.53 | inactive |
| NDRG2 (GeneID 57447) | SID134318058 | 0.68 | 0.56 | inactive |
| PRAMEF7 (GeneID 441871) | SID135625180 | 1.1 | 0.36 | inactive |
| CSN2 (GeneID 1447) | SID152148311 | 1.24 | 0.57 | inactive |
| SPG21 (GeneID 51324) | SID134317700 | 0.43 | 1.56 | inactive |
| LINC03040 (GeneID 221416) | SID135623202 | 0.63 | 1.17 | inactive |
| HSD17B10 (GeneID 3028) | SID135621761 | 0.92 | 0.64 | inactive |
| NTNG1 (GeneID 22854) | SID152153652 | 0.63 | 0.64 | inactive |
| GK2 (GeneID 2712) | SID56479273 | 0.88 | 0.96 | inactive |
| HERC6 (GeneID 55008) | SID152152140 | 0.21 | 1.98 | inactive |
| CDC14A (GeneID 8556) | SID135620683 | 0.82 | 0.55 | inactive |
| CAMK4 (GeneID 814) | SID56478933 | 0.58 | 1.44 | inactive |
| DUSP21 (GeneID 63904) | SID134312829 | 0.96 | 0.74 | inactive |
| DUSP21 (GeneID 63904) | SID134312829 | 0.59 | 1.1 | inactive |
| MYD88 (GeneID 4615) | SID152151000 | 0.58 | 1.02 | inactive |
| ALPP (GeneID 250) | SID152156234 | 0.17 | 2.32 | inactive |

Next part (4 carried over from the part before).
| gene | PubChem SID | cell gain with vemurafenib | lactate per cell with vemurafenib | Call |
| --- | --- | --- | --- | --- |
| DUSP21 (GeneID 63904) | SID134312829 | 0.96 | 0.74 | inactive |
| DUSP21 (GeneID 63904) | SID134312829 | 0.59 | 1.1 | inactive |
| MYD88 (GeneID 4615) | SID152151000 | 0.58 | 1.02 | inactive |
| ALPP (GeneID 250) | SID152156234 | 0.17 | 2.32 | inactive |
| EML2 (GeneID 24139) | SID134323645 | 0.84 | 1.08 | inactive |
| CCDC6 (GeneID 8030) | SID135621960 | 0.34 | 0.55 | inactive |
| FOXP2 (GeneID 93986) | SID152153771 | 0.83 | 0.45 | inactive |
| RBM5 (GeneID 10181) | SID134313988 | 0.34 | 0.32 | inactive |
| CD48 (GeneID 962) | SID152148578 | 0.88 | 0.47 | active |
| FIBCD1 (GeneID 84929) | SID134312844 | 0.24 | 0.95 | inactive |
| RMND1 (GeneID 55005) | SID152149917 | 0.55 | 0.58 | inactive |
| ELN (GeneID 2006) | SID152150834 | 0.7 | 1.4 | inactive |
| BLM (GeneID 641) | SID152151551 | 0.73 | 1.5 | inactive |
| CRLF2 (GeneID 64109) | SID134319359 | 0.36 | 1.04 | inactive |
| KLKB1 (GeneID 3818) | SID152149799 | 0.69 | 0.78 | inactive |
| IGSF5 (GeneID 150084) | SID152150651 | 0.77 | 0.6 | inactive |
| TMSB4Y (GeneID 9087) | SID135622027 | 0.62 | 0.98 | inactive |
| RPS3 (GeneID 6188) | SID152146996 | 0.05 | 2.43 | inactive |
| TBCCD1 (GeneID 55171) | SID152148649 | 0.14 | 1.76 | inactive |
| PRKD2 (GeneID 25865) | SID135620789 | 1.07 | 1.41 | inactive |
| FKBP2 (GeneID 2286) | SID134313786 | 0.44 | 1.29 | inactive |
| MATR3 (GeneID 9782) | SID152148689 | 0.37 | 2.37 | inactive |
| ZDHHC16 (GeneID 84287) | SID134324988 | 0.41 | 1.58 | inactive |
| TM9SF1 (GeneID 10548) | SID135623131 | 1.3 | 0.57 | inactive |
| EPS8L2 (GeneID 64787) | SID134321213 | 0.08 | 3.48 | inactive |
| LIF (GeneID 3976) | SID134316041 | 0.06 | 1.11 | inactive |
| C10orf53 (GeneID 282966) | SID135623616 | 0.49 | 1.09 | inactive |
| CLVS1 (GeneID 157807) | SID135623542 | 0.28 | 1.64 | inactive |
| MTCH2 (GeneID 23788) | SID134312419 | 0.24 | 0.57 | inactive |
| B4GALT2 (GeneID 8704) | SID152147485 | 0.61 | 1.09 | inactive |
| TGFB1 (GeneID 7040) | SID152149645 | 0.36 | 1.2 | inactive |
| PNLIP (GeneID 5406) | SID152149178 | 0.52 | 0.54 | inactive |
| DUS4L (GeneID 11062) | SID134322907 | 0.26 | 0.74 | inactive |
| UBE2G1 (GeneID 7326) | SID152153337 | 0.62 | 0.59 | inactive |
| TMEM260 (GeneID 54916) | SID135624059 | 0.27 | 0.96 | inactive |
| SYT7 (GeneID 9066) | SID135620811 | 0.84 | 0.85 | inactive |
| ZNF80 (GeneID 7634) | SID135623760 | 0.65 | 0.62 | inactive |
| CCDC8 (GeneID 83987) | SID152156654 | 0.18 | 2.56 | inactive |
| CFAP77 (GeneID 389799) | SID134329570 | 0.67 | 0.6 | inactive |
| MED25 (GeneID 81857) | SID135622799 | 0.43 | 2.82 | inactive |
| OR51T1 (GeneID 401665) | SID152151544 | 0.39 | 0.44 | inactive |
| UFSP2 (GeneID 55325) | SID135624147 | 0.85 | 0.88 | inactive |
| CIRBP (GeneID 1153) | SID134323920 | 0.65 | 0.99 | inactive |
| HPCA (GeneID 3208) | SID152151480 | 1.19 | 0.62 | inactive |
| KRT18 (GeneID 3875) | SID135621969 | 0.23 | 1.46 | inactive |
| SUGT1 (GeneID 10910) | SID134317127 | 0.16 | 1.06 | inactive |
| DIABLO (GeneID 56616) | SID134310478 | 0.45 | 0.88 | inactive |
| TSLP (GeneID 85480) | SID135622584 | 0.92 | 0.43 | inactive |
| FKBP1B (GeneID 2281) | SID134314635 | 0.27 | 0.47 | active |
